For nine compounds, normalised response results are on record in the supplement of paper PMC4862054.

Common to all, as to test: normalised response (% of control), CellTox Green; higher = less cell death (100 = DMSO, 0 = benzethonium chloride kill control)
Details in all cases: incubation time: 72 h

The subject of one assay is BT-474. As for the experimental part:
(§1)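 DSRT, 72 h incubation, CellTox Green / CellTiter-Glo readout. Signal is normalised to DMSO and benzethonium chloride controls. Value is the normalised response at the lowest tested concentration.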

Another assay relates to BT-549. As for the experimental part:
as §1

For the next assay, the system named is CAL-120. On the procedure: as §1
Another assay concerns CAL-148. On the procedure: as §1
For a further assay, the system named is CAL-51. As for the experimental part: as §1
In the next assay the test system is CAL-85-1. As for the experimental part:
as §1

The test system of another assay is DU-4475. As for the experimental part:
as §1

The next assay has as its system HCC1143. On the procedure:
as §1

The next assay has as its system HCC1599. On the procedure:
as §1

The subject of a further assay is HCC1937. On the procedure: as §1
The subject of a further assay is HDQ-P1. On the procedure: as §1
The subject of the next assay is Hs578T. On the procedure:
as §1

The test system of the next assay is MCF-10A. As for the experimental part: as §1
In the next assay the test system is MDA-MB-231. As for the experimental part:
as §1

A further assay relates to MDA-MB-453. On the procedure:
as §1

A further assay concerns MDA-MB-468. As for the experimental part:
as §1

In a further assay the test system is MFM-223. As for the experimental part: as §1

Most entries show no effect beyond the scatter of the controls.

In the case of `Cn1cc(C2=Nc3cc(NC(=O)C(N)C4CCCCC4)cc4c3C2=CNNC4=O)cn1` (centres undefined) (1 nM), the normalised response in the assay on BT-474 was 84.2%; in the assay with BT-549 it was 102%; in the assay on CAL-120, 100%; with CAL-148, 85%; with CAL-51, 102%; in the assay with CAL-85-1 it was 95.1%. Further, the normalised response in the assay with DU-4475 is 94.7%; in the assay with HCC1143 it was 111%; with HCC1599, 91.1%; with HCC1937, 66.6%; in the assay on HDQ-P1, 87.7%; in the assay with Hs578T, 107%. In addition, the normalised response was determined as 96.7% in the assay on MCF-10A; 96.7% with MDA-MB-231; 93.6% with MDA-MB-453; 89.9% in the assay on MDA-MB-468; 81.1% in the assay on MFM-223.
Take `CCCCC/C=C/C=C1/C(=O)C=C[C@@H]1C/C=C\CCCC(=O)O` [15D-PGJ2] (0.08 nM): the normalised response stood at 101% in the assay on BT-474; 93.5% in the assay on BT-549; 104% in the assay with CAL-120; 106% in the assay on CAL-51; 97.3% in the assay on CAL-85-1; 112% in the assay on DU-4475. Further, the normalised response with HCC1143 came out at 113%; in the assay on HCC1599, 123%; in the assay on HCC1937, 74.5%; in the assay with HDQ-P1 it was 105%; in the assay with Hs578T, 118%; in the assay on MCF-10A, 117%. In addition, the normalised response with MDA-MB-231 was found to be 114%; in the assay on MDA-MB-453 it was 106%; in the assay on MDA-MB-468 it was 105%; with MFM-223, 95.1%.
With `CO[C@@H](C(=O)N1Cc2[nH]nc(NC(=O)c3ccc(N4CCN(C)CC4)cc3)c2C1)c1ccccc1` [Danusertib] (1 nM), the normalised response with BT-474 amounted to 98.9%; with BT-549, 101%; in the assay on CAL-120, 99.8%; in the assay on CAL-148, 99.8%; in the assay on CAL-51, 120%; in the assay on CAL-85-1, 111%. Besides, the normalised response was determined as 100% with DU-4475; 94.3% in the assay on HCC1143; 98.9% with HCC1599; 75.8% with HCC1937; 104% in the assay on MCF-10A; 104% in the assay on MDA-MB-231. Moreover, the normalised response turned out to be 108% in the assay with MDA-MB-453, 124% with MDA-MB-468 and 99.5% in the assay on MFM-223.
On to `CNC(=O)c1ccc(N2C(=S)N(c3ccc(C#N)c(C(F)(F)F)c3)C(=O)C2(C)C)cc1F` [Enzalutamide] (1 nM), for which the normalised response was determined as 102% in the assay with BT-474; 98.2% with BT-549; 102% in the assay with CAL-120; 102% with CAL-148; 116% in the assay on CAL-51; 100% in the assay on CAL-85-1. The normalised response in the assay on DU-4475 is 106%; in the assay on HCC1143, 124%; in the assay on HCC1599, 111%; in the assay with HCC1937, 73.4%; with HDQ-P1, 93.2%; with Hs578T it was 92.4%. Also, the normalised response with MCF-10A was determined as 93.4%; in the assay with MDA-MB-453 it was 102%; with MDA-MB-468, 89.1%; in the assay with MFM-223, 107%.
For `CCCc1cc(C)[nH]c(=O)c1CNC(=O)c1cc(-c2ccnc(N3CCN(C)CC3)c2)cc2c1cnn2C(C)C` [GSK343] (1 nM), the normalised response in the assay on BT-474 was found to be 97.5%; with BT-549 it was 95.1%; in the assay with CAL-120 it was 96.4%; in the assay on CAL-148, 86%; in the assay on CAL-51 it was 94.3%; in the assay on CAL-85-1, 106%. In addition, the normalised response came to 96.6% with DU-4475; 130% with HCC1143; 104% with HCC1599; 93.7% in the assay with HCC1937; 97.2% in the assay on HDQ-P1; 89.9% in the assay on Hs578T. The normalised response with MCF-10A came to 96.5%; with MDA-MB-231, 101%; in the assay on MDA-MB-453 it was 101%; in the assay with MDA-MB-468, 90.4%; in the assay with MFM-223, 98.8%.
Turning to `O=P1(NCCCl)OCCCN1CCCl` (centres undefined) [Ifosfamide] (1 nM), the normalised response was 96.3% in the assay on BT-474; 105% with BT-549; 102% in the assay on CAL-120; 92.8% in the assay with CAL-148; 91.3% in the assay with CAL-51; 103% with CAL-85-1. The normalised response with DU-4475 was determined as 97%; in the assay on HCC1143, 83%; in the assay with HCC1599, 101%; in the assay on HCC1937, 81.9%; in the assay with MDA-MB-231, 92.4%; in the assay on MDA-MB-453, 100%. Besides, the normalised response in the assay with MDA-MB-468 was 122%; with MFM-223, 54.1%.
With `Cc1ccc([N+](=O)[O-])cc1S(=O)(=O)N(C)/N=C/c1cnc2ccc(Br)cn12` [PIK-75] (1 nM), the normalised response in the assay with BT-474 stood at 99.1%; with BT-549, 87.4%; in the assay on CAL-120, 98.2%; with CAL-148, 99.7%; in the assay on CAL-51 it was 74.3%; in the assay on CAL-85-1, 114%. Besides, the normalised response in the assay with DU-4475 is 98.4%; in the assay with HCC1143, 104%; in the assay on HCC1599 it was 93.1%; with HCC1937 it was 83.1%; in the assay with HDQ-P1, 94.7%; with MCF-10A it was 101%. For the same compound, the normalised response with MDA-MB-231 worked out at 107%; with MDA-MB-453, 96.2%; in the assay on MDA-MB-468, 107%; with MFM-223, 79.8%.
Take `Cc1cnc(NC(=O)Nc2cc(Br)c(C)cc2OC[C@@H]2CNCCO2)cn1` [Rabusertib] (0.1 nM): the normalised response in the assay on BT-474 worked out at 99.9%; in the assay on BT-549, 98.6%; with CAL-120, 106%; in the assay on CAL-148, 106%; in the assay on CAL-51 it was 121%; with CAL-85-1, 106%. The normalised response is 107% in the assay on DU-4475; 112% with HCC1143; 109% in the assay on HCC1599; 115% with HCC1937; 90.3% in the assay on HDQ-P1; 102% in the assay with Hs578T. The normalised response with MCF-10A was 109%; with MDA-MB-231, 115%; in the assay with MDA-MB-453, 110%; with MDA-MB-468, 104%; in the assay with MFM-223, 104%.
For `CO[C@H]1C[C@@H]2CC[C@@H](C)[C@@](O)(O2)C(=O)C(=O)N2CCCC[C@H]2C(=O)O[C@H]([C@H](C)C[C@@H]2CC[C@@H](OC(=O)C(C)(CO)CO)[C@H](OC)C2)CC(=O)[C@H](C)/C=C(\C)[C@@H](O)[C@@H](OC)C(=O)[C@H](C)C[C@H](C)/C=C/C=C/C=C/1C` [Temsirolimus] (0.01 nM), the normalised response with BT-474 was determined as 102%; in the assay on BT-549, 92%; in the assay with CAL-120 it was 99.5%; in the assay with CAL-148 it was 105%; in the assay on CAL-51 it was 118%; in the assay on CAL-85-1, 103%. Besides, the normalised response in the assay on DU-4475 turned out to be 98.4%; in the assay on HCC1143, 111%; in the assay on HCC1599 it was 92.3%; with HCC1937, 111%; in the assay on HDQ-P1, 99%; with MCF-10A, 103%. Further, the normalised response in the assay with MDA-MB-231 was determined as 104%; with MDA-MB-453 it was 109%; in the assay with MDA-MB-468, 102%; in the assay on MFM-223, 103%.
